# Results: article PMC9023524
# Chains of the proteins cited; added tags and fusions are not shown.
# UniProt Q70KF4: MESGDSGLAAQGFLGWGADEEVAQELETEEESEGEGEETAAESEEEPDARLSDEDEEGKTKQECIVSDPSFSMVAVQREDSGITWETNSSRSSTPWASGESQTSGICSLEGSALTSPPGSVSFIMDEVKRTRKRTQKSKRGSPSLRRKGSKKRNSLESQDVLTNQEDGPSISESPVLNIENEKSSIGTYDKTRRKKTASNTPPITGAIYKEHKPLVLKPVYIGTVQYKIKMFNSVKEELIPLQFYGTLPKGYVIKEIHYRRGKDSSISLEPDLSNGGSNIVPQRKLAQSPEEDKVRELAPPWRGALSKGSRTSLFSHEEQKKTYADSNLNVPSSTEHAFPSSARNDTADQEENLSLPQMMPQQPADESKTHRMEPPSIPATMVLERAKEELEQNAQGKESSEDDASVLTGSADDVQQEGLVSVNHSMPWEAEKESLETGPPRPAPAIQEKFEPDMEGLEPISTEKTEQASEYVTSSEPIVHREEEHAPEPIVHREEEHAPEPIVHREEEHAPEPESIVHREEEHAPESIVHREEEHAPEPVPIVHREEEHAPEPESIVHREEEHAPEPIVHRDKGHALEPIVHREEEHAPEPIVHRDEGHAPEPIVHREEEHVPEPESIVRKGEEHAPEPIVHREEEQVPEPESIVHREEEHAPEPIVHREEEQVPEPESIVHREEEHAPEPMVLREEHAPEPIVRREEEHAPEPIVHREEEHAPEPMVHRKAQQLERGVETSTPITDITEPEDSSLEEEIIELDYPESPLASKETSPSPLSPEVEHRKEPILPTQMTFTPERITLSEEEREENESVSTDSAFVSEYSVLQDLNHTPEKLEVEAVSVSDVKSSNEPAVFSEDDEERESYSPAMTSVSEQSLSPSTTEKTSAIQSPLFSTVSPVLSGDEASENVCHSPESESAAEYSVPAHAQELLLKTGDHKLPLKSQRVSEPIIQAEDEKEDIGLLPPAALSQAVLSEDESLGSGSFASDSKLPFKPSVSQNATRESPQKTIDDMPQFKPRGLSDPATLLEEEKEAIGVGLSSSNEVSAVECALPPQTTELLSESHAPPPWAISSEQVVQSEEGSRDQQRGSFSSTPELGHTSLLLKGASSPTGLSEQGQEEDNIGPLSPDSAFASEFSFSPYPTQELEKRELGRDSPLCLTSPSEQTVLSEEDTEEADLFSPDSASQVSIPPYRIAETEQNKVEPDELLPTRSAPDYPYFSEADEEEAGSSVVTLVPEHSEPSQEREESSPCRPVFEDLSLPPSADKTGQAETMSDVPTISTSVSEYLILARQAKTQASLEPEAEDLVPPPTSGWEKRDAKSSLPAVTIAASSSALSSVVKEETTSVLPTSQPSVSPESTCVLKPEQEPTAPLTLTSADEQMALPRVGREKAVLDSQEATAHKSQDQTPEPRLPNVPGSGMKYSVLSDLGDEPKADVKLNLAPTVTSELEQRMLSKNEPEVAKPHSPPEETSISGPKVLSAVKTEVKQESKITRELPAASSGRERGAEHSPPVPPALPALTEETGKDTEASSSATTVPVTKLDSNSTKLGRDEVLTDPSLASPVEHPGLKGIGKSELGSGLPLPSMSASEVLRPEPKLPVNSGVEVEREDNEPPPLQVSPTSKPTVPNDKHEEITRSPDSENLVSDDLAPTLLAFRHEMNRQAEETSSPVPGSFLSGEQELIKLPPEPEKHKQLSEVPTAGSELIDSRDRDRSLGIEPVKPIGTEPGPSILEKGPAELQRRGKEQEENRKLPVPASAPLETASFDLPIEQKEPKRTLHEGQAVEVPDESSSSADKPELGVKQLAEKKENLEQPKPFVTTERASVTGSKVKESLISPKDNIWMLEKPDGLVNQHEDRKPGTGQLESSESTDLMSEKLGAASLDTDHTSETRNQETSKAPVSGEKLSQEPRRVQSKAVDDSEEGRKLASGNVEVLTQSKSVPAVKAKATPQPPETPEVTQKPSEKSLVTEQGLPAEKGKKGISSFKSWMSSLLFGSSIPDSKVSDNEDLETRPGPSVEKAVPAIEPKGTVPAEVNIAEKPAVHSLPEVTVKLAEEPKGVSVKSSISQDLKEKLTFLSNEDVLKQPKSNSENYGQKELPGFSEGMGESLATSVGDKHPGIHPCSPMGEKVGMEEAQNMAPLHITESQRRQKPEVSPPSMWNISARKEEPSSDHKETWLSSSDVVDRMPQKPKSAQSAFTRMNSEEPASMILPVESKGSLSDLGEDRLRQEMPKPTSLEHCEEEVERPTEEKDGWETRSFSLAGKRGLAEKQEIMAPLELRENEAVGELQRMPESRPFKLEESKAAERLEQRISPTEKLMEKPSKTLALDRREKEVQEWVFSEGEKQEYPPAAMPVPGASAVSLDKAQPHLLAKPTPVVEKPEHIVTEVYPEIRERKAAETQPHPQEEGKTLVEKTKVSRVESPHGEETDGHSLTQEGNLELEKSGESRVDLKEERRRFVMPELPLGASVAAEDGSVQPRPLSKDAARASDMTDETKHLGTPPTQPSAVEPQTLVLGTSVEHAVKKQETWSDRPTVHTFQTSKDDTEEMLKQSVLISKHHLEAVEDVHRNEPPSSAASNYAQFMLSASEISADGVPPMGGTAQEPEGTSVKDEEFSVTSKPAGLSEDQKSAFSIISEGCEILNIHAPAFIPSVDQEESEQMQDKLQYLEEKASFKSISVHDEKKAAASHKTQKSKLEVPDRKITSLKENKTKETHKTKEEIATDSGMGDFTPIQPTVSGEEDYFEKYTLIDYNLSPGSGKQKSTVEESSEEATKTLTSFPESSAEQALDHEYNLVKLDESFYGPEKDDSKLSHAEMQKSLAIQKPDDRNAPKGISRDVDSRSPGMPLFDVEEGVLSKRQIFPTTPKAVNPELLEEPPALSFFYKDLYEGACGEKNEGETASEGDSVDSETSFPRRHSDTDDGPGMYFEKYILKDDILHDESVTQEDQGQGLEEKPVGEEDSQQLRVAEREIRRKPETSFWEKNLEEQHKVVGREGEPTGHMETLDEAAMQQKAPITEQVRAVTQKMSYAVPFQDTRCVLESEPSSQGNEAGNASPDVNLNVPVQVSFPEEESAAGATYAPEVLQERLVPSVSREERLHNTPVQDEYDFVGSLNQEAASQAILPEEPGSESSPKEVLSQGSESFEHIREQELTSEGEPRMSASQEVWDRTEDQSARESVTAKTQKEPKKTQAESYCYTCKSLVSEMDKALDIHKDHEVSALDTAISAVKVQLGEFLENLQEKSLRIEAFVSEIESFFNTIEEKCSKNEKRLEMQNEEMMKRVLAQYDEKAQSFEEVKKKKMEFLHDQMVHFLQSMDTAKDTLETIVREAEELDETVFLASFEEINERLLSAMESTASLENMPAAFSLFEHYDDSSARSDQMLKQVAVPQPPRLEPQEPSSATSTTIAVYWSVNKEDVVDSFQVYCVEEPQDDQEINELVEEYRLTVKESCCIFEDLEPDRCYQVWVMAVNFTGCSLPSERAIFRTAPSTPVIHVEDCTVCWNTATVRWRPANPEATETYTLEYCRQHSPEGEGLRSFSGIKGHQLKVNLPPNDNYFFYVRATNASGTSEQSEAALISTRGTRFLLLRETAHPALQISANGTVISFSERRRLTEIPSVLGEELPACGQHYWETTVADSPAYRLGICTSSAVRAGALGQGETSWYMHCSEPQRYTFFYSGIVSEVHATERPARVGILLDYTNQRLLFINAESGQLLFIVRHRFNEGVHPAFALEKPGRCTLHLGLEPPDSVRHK
# No constants are given. Whether binding was seen depends on the method and setting. In cells and extracts the contact can be indirect. Some results given as binding are weak or reduced against the parent protein; the word gives no strength.
# Target: RYR2 (mouse (endogenous in mouse heart)) (UniProt E9Q401)
# Test: proximity ligation; Duolink In Situ Red PLA (mouse/rabbit) with RYR2 and CMYA5 antibodies on 4% PFA-fixed, Triton X-100-permeabilised adult mouse cardiomyocytes; detects proteins closer than 40 nm
substance,measurement,value
CMYA5 (cardiomyopathy-associated protein 5) (from UniProt Q70KF4 1-3739),binding,binds
